Results reported in US20150017642A1.
Results are given in words; binding and its absence hold for the method and conditions named. Some entries that bind do so weakly or less than the wild type.

By UniProt entry, the sequences of proteins in these tests, tags left out.
UniProt O15525: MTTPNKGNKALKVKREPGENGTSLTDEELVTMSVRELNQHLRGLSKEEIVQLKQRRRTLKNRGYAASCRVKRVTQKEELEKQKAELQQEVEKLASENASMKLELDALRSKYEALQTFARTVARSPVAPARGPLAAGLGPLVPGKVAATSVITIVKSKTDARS

Molecular target: MafG (UniProt O15525)
Assay: EMSA with 293 nuclear extracts co-expressing NF-E2 and MafG, 32P-labelled NF-E2 site oligonucleotide

B1: wild-type transcription factor NF-E2 (Nuclear factor erythroid-2) (protein)
chain: MSPCPPQQSRNRVIQLSTSELGEMELTWQEIMSITELQGLNAPSEPSFEPQAPAPYLGPPPPTTYCPCSIHPDSGFPLPPPPYELPASTSHVPDPPYSYGNMAIPVSKPLSLSGLLSEPLQDPLALLDIGLPAGPPKPQEDPESDSGLSLNYSDAESLELEGTEAGRRRSEYVEMYPVEYPYSLMPNSLAHSNYTLPAAETPLALEPSSGPVRAKPTARGEAGSRDERRALAMKIPFPTDKIVNLPVDDFNELLARYPLTESQLALVRDIRRRGKNKVAAQNCRKRKLETIVQLERELERLTNERERLLRARGEADRTLEVMRQQLTELYRDIFQHLRDESGNSYSPEEYALQQAADGTIFLVPRGTKMEATD
binding: binds
